Results are given in words; binding and its absence hold for the method and conditions named. Binding seen in cells or lysates may run through a third protein. Some entries that bind do so weakly or less than the wild type.
Molecular target: β-arrestin2 (UniProt Q91YI4)
Assay: co-IP; ImKCs transfected with β-arrestin2, treated with or without 50 nM DPI for 6 h; lysates immunoprecipitated with anti-β-arrestin2; precipitates analysed by Western blotting

Chains of the proteins cited; added tags and fusions are not shown.
UniProt Q91YI4: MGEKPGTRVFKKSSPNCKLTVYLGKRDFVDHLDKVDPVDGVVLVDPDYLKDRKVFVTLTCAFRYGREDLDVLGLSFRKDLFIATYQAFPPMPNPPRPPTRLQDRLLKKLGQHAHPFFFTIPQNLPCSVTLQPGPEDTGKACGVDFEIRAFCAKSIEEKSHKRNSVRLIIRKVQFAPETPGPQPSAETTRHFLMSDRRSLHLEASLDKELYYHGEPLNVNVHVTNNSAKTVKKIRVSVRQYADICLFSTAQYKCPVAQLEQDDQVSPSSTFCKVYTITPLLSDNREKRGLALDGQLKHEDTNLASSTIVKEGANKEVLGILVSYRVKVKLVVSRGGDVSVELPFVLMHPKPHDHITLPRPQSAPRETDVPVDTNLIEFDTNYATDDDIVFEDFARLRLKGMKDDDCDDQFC
UniProt Q63844: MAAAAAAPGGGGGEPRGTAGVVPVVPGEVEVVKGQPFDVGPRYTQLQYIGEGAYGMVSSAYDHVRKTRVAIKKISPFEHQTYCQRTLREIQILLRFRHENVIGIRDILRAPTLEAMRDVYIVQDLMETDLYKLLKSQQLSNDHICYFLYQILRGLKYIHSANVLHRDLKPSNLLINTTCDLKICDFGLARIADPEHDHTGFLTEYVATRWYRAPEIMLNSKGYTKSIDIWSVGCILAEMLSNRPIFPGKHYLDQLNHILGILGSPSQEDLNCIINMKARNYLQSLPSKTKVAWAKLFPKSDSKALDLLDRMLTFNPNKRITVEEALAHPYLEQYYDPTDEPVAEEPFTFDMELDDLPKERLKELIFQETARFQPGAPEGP
UniProt P63085: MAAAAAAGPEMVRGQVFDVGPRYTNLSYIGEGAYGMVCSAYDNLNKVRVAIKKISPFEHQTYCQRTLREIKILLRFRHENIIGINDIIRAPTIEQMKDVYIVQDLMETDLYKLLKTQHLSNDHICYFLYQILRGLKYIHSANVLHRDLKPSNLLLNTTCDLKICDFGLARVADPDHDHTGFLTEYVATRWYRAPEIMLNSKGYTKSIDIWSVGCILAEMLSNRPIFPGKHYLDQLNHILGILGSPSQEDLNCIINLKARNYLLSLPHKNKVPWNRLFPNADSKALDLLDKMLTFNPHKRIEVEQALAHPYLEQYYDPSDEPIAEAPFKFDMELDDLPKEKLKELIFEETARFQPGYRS

| binding | Substance |
| --- | --- |
| binds | ERK1 (from UniProt Q63844 1-380) |
| binds | ERK2 (from UniProt P63085 1-358) |
| binds | PKM2 (from UniProt P52480-1 1-531) (enzyme) |

From PMC10821868
